Data as given in PubChem BioAssay AID1259405 (NCATS, 2018).
The whole screen tested about 50,000 reagents; shown is a random part of them. About 4,000 of them (8%) were called active. 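Mouse siRNA library applied to hamster cells; one well for each siRNA.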 Reagents against one gene are numbered here.

Purpose: 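Silenced genes that increase secreted GFP made by CHO cells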 (primary screen)
Cells: Chinese hamster CHO-K1 ovary cells with stable secreted eGFP expression
Reagents: single siRNA against mouse genes, 0.8 pmol siRNA per well (2 µl of 400 nM stock)
Duration: 3 days
Read-out: 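Per-well intracellular GFP measured by laser scanning cytometry, plus viability from ATP luminescence, each relative to plate median of non-targeting control wells, in %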
Reading the numbers: GFP, % of control: higher = more GFP per well, higher productivity; viability (ATP), % of control: higher = more viable cells (more ATP)
Hit rule: 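a knock-down is called active if GFP reaches 120% or more of non-targeting control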

no.	gene symbol	reagent no.	GFP, % of control	viability (ATP), % of control	outcome
1	Cast	1	75.1	52.9	inactive
2	Cast	2	99.7	66.1	inactive
3	Cast	3	96	92	inactive
4	Dnah11	1	67.3	90.3	inactive
5	Dnah11	2	90.5	92.9	inactive
6	Rftn1	1	51.1	49.4	inactive
7	Rftn1	2	29.8	26.1	inactive
8	Rftn1	3	90.7	91.3	inactive
9	Thtpa	1	64.3	58.8	inactive
10	Thtpa	2	114	115	inactive
11	Thtpa	3	89.7	69.3	inactive
12	Msra	1	53.2	47.8	inactive
13	Msra	2	59.3	86.6	inactive
14	Msra	3	37.9	51.7	inactive
15	Got1	1	71.5	74.3	inactive
16	Got1	2	88.8	94	inactive
17	Got1	3	101	84.9	inactive
18	Phospho1	1	85.2	96.2	inactive
19	Phospho1	2	94.8	76.6	inactive
20	Alkbh8	1	84.9	110	inactive
21	Alkbh8	2	130	101	active
22	Tmem82	1	145	67.3	active
23	Tmem82	2	92.8	73.2	inactive
24	Tmem82	3	160	143	active
25	Timp1	1	76.1	93.8	inactive
26	Timp1	2	79.7	65.1	inactive
27	Timp1	3	206	71.6	active
28	Chchd5	1	94.4	105	inactive
29	Chchd5	2	64.2	85.6	inactive
30	Chchd5	3	85.7	80.7	inactive
31	Npc1l1	1	72	60.8	inactive
32	Npc1l1	2	96.1	74.6	inactive
33	Npc1l1	3	0.0429	379	inactive
34	Nlrp4a	1	83.2	79.7	inactive
35	Nlrp4a	2	59.2	48.4	inactive
36	Nlrp4a	3	77.8	61.9	inactive

Continued (4 carried over from the part before).
no.	gene symbol	reagent no.	GFP, % of control	viability (ATP), % of control	outcome
33	Npc1l1	3	0.0429	379	inactive
34	Nlrp4a	1	83.2	79.7	inactive
35	Nlrp4a	2	59.2	48.4	inactive
36	Nlrp4a	3	77.8	61.9	inactive
37	Nmt1	1	53.2	82.5	inactive
38	Nmt1	2	88.8	129	inactive
39	Nmt1	3	95.3	127	inactive
40	Uqcrc1	1	59.9	91.4	inactive
41	Uqcrc1	2	47.4	51.7	inactive
42	Uqcrc1	3	91.9	68.9	inactive
43	Mrps15	1	68.4	69.3	inactive
44	Mrps15	2	64.2	66.3	inactive
45	Mrps15	3	90.2	81.9	inactive
46	F3	1	105	108	inactive
47	F3	2	87.9	75.4	inactive
48	F3	3	42.2	35.4	inactive
49	Zbtb6	1	69.4	56.5	inactive
50	Zbtb6	2	96.6	86.7	inactive
51	Zbtb6	3	97.4	87.7	inactive
52	Bmpr1b	1	63.2	74.7	inactive
53	Nav3	1	52.6	62.7	inactive
54	Nav3	2	63.8	84.4	inactive
55	Nav3	3	97.7	75.2	inactive
56	Lrrc8a	1	79.5	73.1	inactive
57	Lrrc8a	2	24.1	31.2	inactive
58	Lrrc8a	3	79.2	26.6	inactive
59	Galnt4	1	64	116	inactive
60	Galnt4	2	67.2	116	inactive
61	Galnt4	3	50.9	113	inactive
62	Vsig4	1	95.6	86.1	inactive
63	Vsig4	2	103	77.9	inactive
64	Vsig4	3	148	133	active
65	Ankrd44	1	99.4	61.2	inactive
66	Ankrd44	2	54.4	54.3	inactive
67	Ankrd44	3	58.3	78.6	inactive
68	Ang4	1	97.3	85.3	inactive
69	Ang4	2	95.4	87.1	inactive
70	Ang4	3	197	86.6	active
71	Calcoco1	1	122	66.1	active
72	Calcoco1	2	189	124	active
73	Calcoco1	3	60.2	70.4	inactive
74	Uvrag	1	62.6	58.5	inactive
75	Uvrag	2	68	56.8	inactive
76	Uvrag	3	85.6	109	inactive
77	Zfp825	1	50.7	54.4	inactive
78	Zfp825	2	70	63.7	inactive
79	Zfp825	3	106	101	inactive
80	Mertk	1	103	102	inactive
81	Pdgfd	1	58.2	68.1	inactive
82	Pdgfd	2	157	106	active
83	Pdgfd	3	63.9	117	inactive
84	Psat1	1	69.6	61.9	inactive
85	Psat1	2	78.6	63.3	inactive
86	Psat1	3	96.1	95.2	inactive
87	Hip1r	1	55.1	62.1	inactive
88	Hip1r	2	55.3	63.7	inactive
89	Hip1r	3	56.5	43.2	inactive
90	Trim52	1	85.6	77.4	inactive
91	Trim52	2	105	91.4	inactive
92	Trim52	3	114	116	inactive
93	Agk	1	122	102	active
94	Znhit1	1	49.3	42.1	inactive
95	Znhit1	2	54.4	54.1	inactive
96	Znhit1	3	91.1	95.3	inactive
97	Golga7b	1	63.4	51	inactive
98	Golga7b	2	82.7	98.4	inactive
99	Golga7b	3	81.4	139	inactive
100	Mag	1	105	157	inactive
101	Mag	2	82	71.1	inactive
102	Npy4r	1	107	96.9	inactive
103	Npy4r	2	72.9	70.8	inactive
104	Npy4r	3	85.8	71.1	inactive
105	Sema3e	1	105	65.6	inactive
106	Sema3e	2	17.6	16	inactive
107	Sema3e	3	21.7	26	inactive
